According to the supplement of paper PMC4604168 (melanoma cell lines):
The list shows a part of the results. Repeats are few or missing, and single values can be far off.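 Cells were imaged in 1,536-well plates, and nuclei stained with an antibody against cleaved PARP were counted against all DNA-stained nuclei to give the apoptosis fraction. Screening doses were chosen to leave most cells alive, and resting and induced cleaved-PARP levels differ strongly between cell lines.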

Test system: A2058
Test: cleaved PARP positive nuclei fraction relative to DMSO control; melanoma cells; higher = more apoptosis
Settings: library dose: low library concentration; 72 h

| Structure (SMILES) | cleaved PARP positive nuclei fraction [%] |
| --- | --- |
| Cc1ccc(Nc2nccc(N(C)c3ccc4c(C)n(C)nc4c3)n2)cc1S(N)(=O)=O [Pazopanib] + N#Cc1c(O)c2c(-c3ccc(-c4ccccc4O)cc3)csc2[nH]c1=O [A769662] (first compound 0.4 µM, partner dose 2 µM) | 74.5 |
| N#CC[C@H](C1CCCC1)n1cc(-c2ncnc3[nH]ccc23)cn1 [ruxolitinib] + COc1cc2ncnc(Nc3ccc(Oc4ccccc4)cc3)c2cc1OC [SrcI1] (first compound 1 µM, partner dose 2 µM) | 98.3 |
| O=C(Nc1cc(C(F)(F)F)cc(C(F)(F)F)c1)c1cc(Cl)ccc1O + CCN(CC)CCCCNc1ncc2cc(-c3cc(OC)cc(OC)c3)c(NC(=O)NC(C)(C)C)nc2n1 [PD173074] (first compound 0.016 µM, partner dose 0.1 µM) | 63 |
| CCCCCCCCCCCCCCCCCCOP(=O)([O-])OC1CC[N+](C)(C)CC1 [Perifosine] + COc1ccc2c(c1)CCC1C2CCC2(C)C(NCCCCCCN3C(=O)C=CC3=O)CCC12 [U73122] (first compound 0.4 µM, partner dose 0.4 µM) | 482 |
| O=c1[nH]nc(Sc2ncc([N+](=O)[O-])s2)n1-c1ccc2c(c1)OCCO2 + N#Cc1c(O)c2c(-c3ccc(-c4ccccc4O)cc3)csc2[nH]c1=O [A769662] (first compound 0.2 µM, partner dose 2 µM) | 127 |
| O=c1[nH]nc(Sc2ncc([N+](=O)[O-])s2)n1-c1ccc2c(c1)OCCO2 + COc1ccc2c(c1)CCC1C2CCC2(C)C(NCCCCCCN3C(=O)C=CC3=O)CCC12 [U73122] (first compound 0.2 µM, partner dose 0.4 µM) | 75.4 |
| N#CC[C@H](C1CCCC1)n1cc(-c2ncnc3[nH]ccc23)cn1 [ruxolitinib] + O=C(Nc1ccccc1)c1cc([N+](=O)[O-])ccc1Cl [GW9662] (first compound 1 µM, partner dose 2 µM) | 57.4 |
| O=C(/C=C/c1cccnc1)NCCCCC1CCN(C(=O)c2ccccc2)CC1 + O=c1cc(-c2cccc3c2Sc2ccccc2S3)oc(N2CCOCC2)c1 [KU55933] (first compound 0.01 µM, partner dose 1 µM) | 370 |
| CCCCCCCCCCCCCCCCCCOP(=O)([O-])OC1CC[N+](C)(C)CC1 [Perifosine] + Cc1cc([N+](=O)[O-])ccc1NS(=O)(=O)c1cc(Cl)ccc1Cl [FH535] (first compound 0.4 µM, partner dose 1 µM) | 100 |
| N#CC[C@H](C1CCCC1)n1cc(-c2ncnc3[nH]ccc23)cn1 [ruxolitinib] + O=S(=O)(c1ccccc1)N(CC(F)(F)F)c1ccc(C(O)(C(F)(F)F)C(F)(F)F)cc1 [T0901317] (first compound 1 µM, partner dose 1.4 µM) | 52.3 |
| Cc1cn(-c2cc(NC(=O)c3ccc(C)c(Nc4nccc(-c5cccnc5)n4)c3)cc(C(F)(F)F)c2)cn1 [nilotinib] + COC(=O)c1sccc1S(=O)(=O)Nc1ccc(Nc2ccccc2)cc1OC [GSK0660] (first compound 0.2 µM, partner dose 1 µM) | 80.3 |
| Cc1ccc(Nc2nccc(N(C)c3ccc4c(C)n(C)nc4c3)n2)cc1S(N)(=O)=O [Pazopanib] + O=C(O)C(=O)Nc1sc2c(c1C(=O)O)CCNC2 [TCS401] (first compound 0.4 µM, partner dose 1.66667 µM) | 46.2 |
| N#CC[C@H](C1CCCC1)n1cc(-c2ncnc3[nH]ccc23)cn1 [ruxolitinib] + COc1ccc(COc2ccc(Cc3cnc(N)nc3N)cc2OC)cc1 [GW2580] (first compound 1 µM, partner dose 1 µM) | 67.8 |
| Cc1ccc(Nc2nccc(N(C)c3ccc4c(C)n(C)nc4c3)n2)cc1S(N)(=O)=O [Pazopanib] + CCc1ccc(CCOc2ccc(CC3SC(=O)NC3=O)cc2)nc1 [pioglitazone] (first compound 0.4 µM, partner dose 2 µM) | 87.1 |
| Cc1cc(Nc2cc(N3CCN(C)CC3)nc(Sc3ccc(NC(=O)C4CC4)cc3)n2)n[nH]1 [Tozasertib] + c1cc(-c2cnn3cc(-c4ccc(OCCN5CCCCC5)cc4)cnc23)ccn1 [Dorsomorphin] (first compound 0.006 µM, partner dose 0.4 µM) | 156 |
| Cc1ccc(Nc2nccc(N(C)c3ccc4c(C)n(C)nc4c3)n2)cc1S(N)(=O)=O [Pazopanib] + COC(=O)c1sccc1S(=O)(=O)Nc1ccc(Nc2ccccc2)cc1OC [GSK0660] (first compound 0.4 µM, partner dose 1 µM) | 84.3 |
| COc1cc([C@@H]2c3cc4c(cc3[C@@H](O[C@@H]3O[C@@H]5CO[C@@H](C)O[C@H]5[C@H](O)[C@H]3O)[C@H]3COC(=O)[C@H]23)OCO4)cc(OC)c1O [etoposide] + O=S(=O)(c1ccccc1)N(CC(F)(F)F)c1ccc(C(O)(C(F)(F)F)C(F)(F)F)cc1 [T0901317] (first compound 0.02 µM, partner dose 1.4 µM) | 22.2 |
| O=c1[nH]nc(Sc2ncc([N+](=O)[O-])s2)n1-c1ccc2c(c1)OCCO2 + c1cc(-c2cnn3cc(-c4ccc(OCCN5CCCCC5)cc4)cnc23)ccn1 [Dorsomorphin] (first compound 0.2 µM, partner dose 0.4 µM) | 164 |
| Cc1cc(Nc2cc(N3CCN(C)CC3)nc(Sc3ccc(NC(=O)C4CC4)cc3)n2)n[nH]1 [Tozasertib] + Oc1cc(-c2nc(-c3ccccc3)[nH]c2-c2ccncc2)ccc1Cl [L779450] (first compound 0.006 µM, partner dose 0.2 µM) | 175 |
| Cc1cc(Nc2cc(N3CCN(C)CC3)nc(Sc3ccc(NC(=O)C4CC4)cc3)n2)n[nH]1 [Tozasertib] + Cn1cc(/C=C2\C(=O)Nc3cccnc32)c2ccccc21 [GW441756] (first compound 0.006 µM, partner dose 0.4 µM) | 86 |
| Cc1cn(-c2cc(NC(=O)c3ccc(C)c(Nc4nccc(-c5cccnc5)n4)c3)cc(C(F)(F)F)c2)cn1 [nilotinib] + O=C(O)C(=O)Nc1sc2c(c1C(=O)O)CCNC2 [TCS401] (first compound 0.2 µM, partner dose 1.66667 µM) | 24.9 |
| Cc1cn(-c2cc(NC(=O)c3ccc(C)c(Nc4nccc(-c5cccnc5)n4)c3)cc(C(F)(F)F)c2)cn1 [nilotinib] + O=S(=O)(c1ccccc1)N(CC(F)(F)F)c1ccc(C(O)(C(F)(F)F)C(F)(F)F)cc1 [T0901317] (first compound 0.2 µM, partner dose 1.4 µM) | 53.2 |
| COc1cc([C@@H]2c3cc4c(cc3[C@@H](O[C@@H]3O[C@@H]5CO[C@@H](C)O[C@H]5[C@H](O)[C@H]3O)[C@H]3COC(=O)[C@H]23)OCO4)cc(OC)c1O [etoposide] + Cc1cc([N+](=O)[O-])ccc1NS(=O)(=O)c1cc(Cl)ccc1Cl [FH535] (first compound 0.02 µM, partner dose 1 µM) | 119 |
| N#CC[C@H](C1CCCC1)n1cc(-c2ncnc3[nH]ccc23)cn1 [ruxolitinib] + N#Cc1c(O)c2c(-c3ccc(-c4ccccc4O)cc3)csc2[nH]c1=O [A769662] (first compound 1 µM, partner dose 2 µM) | 97.9 |
| COc1cc([C@@H]2c3cc4c(cc3[C@@H](O[C@@H]3O[C@@H]5CO[C@@H](C)O[C@H]5[C@H](O)[C@H]3O)[C@H]3COC(=O)[C@H]23)OCO4)cc(OC)c1O [etoposide] + O=C1NC(=O)/C(=C/c2ccc(-c3ccc(F)cc3O)o2)S1 [AS252424] (first compound 0.02 µM, partner dose 1 µM) | 234 |
| COc1cc([C@@H]2c3cc4c(cc3[C@@H](O[C@@H]3O[C@@H]5CO[C@@H](C)O[C@H]5[C@H](O)[C@H]3O)[C@H]3COC(=O)[C@H]23)OCO4)cc(OC)c1O [etoposide] + CC(C)CCN1c2nc(Nc3cc(F)c(O)c(F)c3)ncc2N(C)C(=O)C1C [BID1870] (first compound 0.02 µM, partner dose 0.2 µM) | 56.2 |
| Cc1ccc(Nc2nccc(N(C)c3ccc4c(C)n(C)nc4c3)n2)cc1S(N)(=O)=O [Pazopanib] + CCN(CC)CCCCNc1ncc2cc(-c3cc(OC)cc(OC)c3)c(NC(=O)NC(C)(C)C)nc2n1 [PD173074] (first compound 0.4 µM, partner dose 0.1 µM) | 49.7 |
| Cc1cn(-c2cc(NC(=O)c3ccc(C)c(Nc4nccc(-c5cccnc5)n4)c3)cc(C(F)(F)F)c2)cn1 [nilotinib] + COc1ccc2c(c1)CCC1C2CCC2(C)C(NCCCCCCN3C(=O)C=CC3=O)CCC12 [U73122] (first compound 0.2 µM, partner dose 0.4 µM) | 180 |
| N#CC[C@H](C1CCCC1)n1cc(-c2ncnc3[nH]ccc23)cn1 [ruxolitinib] + COc1ccc2c(c1)CCC1C2CCC2(C)C(NCCCCCCN3C(=O)C=CC3=O)CCC12 [U73122] (first compound 1 µM, partner dose 0.4 µM) | 39.2 |
| CCCCCCCCCCCCCCCCCCOP(=O)([O-])OC1CC[N+](C)(C)CC1 [Perifosine] + O=C(O)C(=O)Nc1sc2c(c1C(=O)O)CCNC2 [TCS401] (first compound 0.4 µM, partner dose 1.66667 µM) | 35 |

Looked up above:
cleaved PARP positive nuclei fraction [%], COc1cc([C@@H]2c3cc4c(cc3[C@@H](O[C@@H]3O[C@@H]5CO[C@@H](C)O[C@H]5[C@H](O)[C@H]3O)[C@H]3COC(=O)[C@H]23)OCO4)cc(OC)c1O [etoposide] + O=C1NC(=O)/C(=C/c2ccc(-c3ccc(F)cc3O)o2)S1 [AS252424] (first compound 0.02 µM, partner dose 1 µM) reads 234
cleaved PARP positive nuclei fraction [%], O=C(Nc1cc(C(F)(F)F)cc(C(F)(F)F)c1)c1cc(Cl)ccc1O + CCN(CC)CCCCNc1ncc2cc(-c3cc(OC)cc(OC)c3)c(NC(=O)NC(C)(C)C)nc2n1 [PD173074] (first compound 0.016 µM, partner dose 0.1 µM) reads 63
